Source: publication PMC6746817
No constants are given. Whether binding was seen depends on the method and setting. Binding seen in cells or lysates may run through a third protein. Some binding calls cover weakened binding; strength is not graded here.

Protein sequences, listed by entry. Tags and fused reporters are not part of them.
UniProt P10275: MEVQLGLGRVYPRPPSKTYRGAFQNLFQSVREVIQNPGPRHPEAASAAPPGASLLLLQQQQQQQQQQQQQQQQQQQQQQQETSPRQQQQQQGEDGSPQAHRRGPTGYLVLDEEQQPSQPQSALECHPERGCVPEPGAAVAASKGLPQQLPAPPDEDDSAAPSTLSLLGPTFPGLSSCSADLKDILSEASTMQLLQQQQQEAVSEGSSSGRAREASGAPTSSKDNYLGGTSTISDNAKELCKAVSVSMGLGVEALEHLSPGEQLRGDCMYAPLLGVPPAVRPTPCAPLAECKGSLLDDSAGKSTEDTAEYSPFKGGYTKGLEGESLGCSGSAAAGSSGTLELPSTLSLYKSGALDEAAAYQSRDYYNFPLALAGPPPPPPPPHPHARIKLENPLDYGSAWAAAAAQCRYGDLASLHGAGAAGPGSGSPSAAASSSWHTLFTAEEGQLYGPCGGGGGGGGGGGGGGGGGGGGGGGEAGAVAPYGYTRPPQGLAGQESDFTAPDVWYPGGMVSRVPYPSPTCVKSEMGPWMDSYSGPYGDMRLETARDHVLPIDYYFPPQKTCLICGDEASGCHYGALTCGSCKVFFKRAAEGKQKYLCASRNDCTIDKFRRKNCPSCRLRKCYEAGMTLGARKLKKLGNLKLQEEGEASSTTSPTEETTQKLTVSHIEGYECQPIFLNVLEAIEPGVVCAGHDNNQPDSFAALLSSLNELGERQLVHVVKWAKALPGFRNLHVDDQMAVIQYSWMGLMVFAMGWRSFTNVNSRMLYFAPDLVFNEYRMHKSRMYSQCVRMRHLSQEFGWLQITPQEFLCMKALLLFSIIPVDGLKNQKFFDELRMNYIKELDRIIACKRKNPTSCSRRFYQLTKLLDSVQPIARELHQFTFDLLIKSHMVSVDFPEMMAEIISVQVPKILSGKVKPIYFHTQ
UniProt P25440: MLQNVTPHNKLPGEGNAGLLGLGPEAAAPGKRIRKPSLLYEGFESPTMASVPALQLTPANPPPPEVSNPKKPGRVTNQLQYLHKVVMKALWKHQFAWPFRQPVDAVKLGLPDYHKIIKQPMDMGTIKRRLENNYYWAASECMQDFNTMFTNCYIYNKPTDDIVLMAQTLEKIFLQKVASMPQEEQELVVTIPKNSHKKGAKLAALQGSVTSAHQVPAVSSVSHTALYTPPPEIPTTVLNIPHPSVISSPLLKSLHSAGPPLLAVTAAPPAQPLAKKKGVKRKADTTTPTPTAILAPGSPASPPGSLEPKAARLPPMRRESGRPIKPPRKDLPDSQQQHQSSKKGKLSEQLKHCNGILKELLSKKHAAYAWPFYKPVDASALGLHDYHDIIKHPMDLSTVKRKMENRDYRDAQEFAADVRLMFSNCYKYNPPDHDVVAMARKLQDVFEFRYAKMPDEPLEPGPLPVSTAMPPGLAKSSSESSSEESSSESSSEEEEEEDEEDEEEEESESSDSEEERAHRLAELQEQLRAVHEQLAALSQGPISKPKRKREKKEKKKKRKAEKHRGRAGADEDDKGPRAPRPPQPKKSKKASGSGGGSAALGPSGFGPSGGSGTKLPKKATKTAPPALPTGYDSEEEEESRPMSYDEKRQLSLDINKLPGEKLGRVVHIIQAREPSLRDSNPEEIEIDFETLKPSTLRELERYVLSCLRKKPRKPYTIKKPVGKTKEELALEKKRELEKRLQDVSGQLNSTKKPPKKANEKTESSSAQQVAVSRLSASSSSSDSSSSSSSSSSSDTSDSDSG

Columns and labels:
[1] = molecular target: T1, ATPase-family AAA-domain-containing 2 protein (human (endogenous in MDA-MB-231 and MDA-MB-453)) (UniProt Q6PL18); assay: condition: only cells treated with 0.5 μM JQ1 for 72 hours; co-IP; nuclear proteins of MDA-MB-231 and MDA-MB-453 cells treated with 0.5 uM JQ1 for 72 hours; precipitation with antibody against ATAD2, Protein A/G Sepharose beads, immunoblot
T1 sequence: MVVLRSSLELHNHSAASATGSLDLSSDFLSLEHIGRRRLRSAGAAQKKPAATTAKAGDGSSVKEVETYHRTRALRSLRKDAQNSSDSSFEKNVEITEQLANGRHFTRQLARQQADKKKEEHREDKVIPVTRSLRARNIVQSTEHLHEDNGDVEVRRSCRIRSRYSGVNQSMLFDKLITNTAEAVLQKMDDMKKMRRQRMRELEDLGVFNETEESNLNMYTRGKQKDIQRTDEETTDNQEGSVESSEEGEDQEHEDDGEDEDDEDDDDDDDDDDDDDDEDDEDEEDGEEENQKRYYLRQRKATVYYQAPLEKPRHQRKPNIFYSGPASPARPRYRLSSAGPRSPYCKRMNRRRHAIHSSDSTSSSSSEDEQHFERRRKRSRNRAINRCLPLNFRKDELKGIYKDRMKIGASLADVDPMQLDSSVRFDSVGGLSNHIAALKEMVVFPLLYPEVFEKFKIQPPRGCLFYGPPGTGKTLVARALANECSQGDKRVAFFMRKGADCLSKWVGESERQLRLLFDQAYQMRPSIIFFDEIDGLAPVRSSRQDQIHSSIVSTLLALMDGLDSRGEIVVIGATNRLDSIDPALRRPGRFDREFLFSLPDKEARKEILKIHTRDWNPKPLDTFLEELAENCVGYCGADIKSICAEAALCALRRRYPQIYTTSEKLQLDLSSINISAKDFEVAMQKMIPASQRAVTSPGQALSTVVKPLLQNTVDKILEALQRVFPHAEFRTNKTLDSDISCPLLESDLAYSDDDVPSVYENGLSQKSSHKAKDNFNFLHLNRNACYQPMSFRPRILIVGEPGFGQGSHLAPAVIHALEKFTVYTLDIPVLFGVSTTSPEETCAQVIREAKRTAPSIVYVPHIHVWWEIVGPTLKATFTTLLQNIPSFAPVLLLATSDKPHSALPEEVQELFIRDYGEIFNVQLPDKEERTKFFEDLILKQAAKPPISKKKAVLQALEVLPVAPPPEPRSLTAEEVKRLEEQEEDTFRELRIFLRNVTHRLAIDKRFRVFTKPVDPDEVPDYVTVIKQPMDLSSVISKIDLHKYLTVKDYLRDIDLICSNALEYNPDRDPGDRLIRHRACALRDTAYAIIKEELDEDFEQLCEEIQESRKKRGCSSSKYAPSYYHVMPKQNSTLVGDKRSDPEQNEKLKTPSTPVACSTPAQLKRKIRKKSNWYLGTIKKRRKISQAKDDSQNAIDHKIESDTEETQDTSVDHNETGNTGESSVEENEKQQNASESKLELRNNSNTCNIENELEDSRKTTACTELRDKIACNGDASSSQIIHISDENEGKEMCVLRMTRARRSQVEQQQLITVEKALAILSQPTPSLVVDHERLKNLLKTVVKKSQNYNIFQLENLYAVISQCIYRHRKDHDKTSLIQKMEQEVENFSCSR

[2] = molecular target: T1, ATPase-family AAA-domain-containing 2 protein (human (endogenous in MDA-MB-231 and MDA-MB-453)); assay: co-IP; nuclear proteins of MDA-MB-231 and MDA-MB-453 cells treated with DMSO (vehicle) (AR precipitation also after 0.5 uM JQ1 for 72 hours, interactions not affected); extracts (0.1 mg) incubated overnight at 4 °C with mouse antibody against AR or ATAD2, Protein A/G Sepharose beads, washed 3 times with lysis buffer, immunoblot
[3] = molecular target: androgen receptor (human (endogenous in MDA-MB-231 and MDA-MB-453)) (UniProt P10275); assay: as above

binding [1] | binding [2] | binding [3] | Substance
no binding | binds weakly | binds | BRD-containing protein 2 (from UniProt P25440 1-801)
no binding | binds |  | androgen receptor (from UniProt P10275 1-920)
